Assay results published in article PMC4738263 (Scientific Reports, 2016).
No constants are given. Whether binding was seen depends on the method and setting. Sequences can lack the tags named with a protein.

Biological target: Hydrogenobacter thermophilus cytochrome c552, wild type, without a His-tag (holo protein) (Hydrogenobacter thermophilus) (UniProt P15452)
Experiment: condition: only HT cyt c552 and cyt c552 free E. coli lysate freeze-thawed together; SEC; control: HT cyt c552 and cyt c552 free E. coli lysate freeze-thawed together, then size exclusion chromatography (Fig. S1)

binding: no binding
B1: Hydrogenobacter thermophilus cytochrome c552, wild type, without a His-tag (holo protein) (natural protein, UniProt P15452 19-98, looked up)
chain: NEQLAKQKGCMACHDLKAKKVGPAYADVAKKYAGRKDAVDYLAGKIKKGGSGVWGSVPMPPQNVTDAEAKQLAQWILSIK
modifications: heme c attached (holo protein)
